Measured values reported in US10103402B2, “Liquid phenothiazine catholytes for non-aqueous redox flow batteries” (University of Kentucky Research Foundation, priority 2015, dated 2018).

Columns and labels:
[1] = Static coin cell galvanostatic cycling with Li metal negative electrode; settings: 10 mM in 0.5 M LiBF4 in PC; for Original charge capacity retained after 30 cycles: C/5, 3.2-3.8 V, Li metal negative electrode; for Coulombic efficiency: stabilized value over 30 cycles, C/5
Protocol: Next, to evaluate MEPT and MEEPT as cathode candidates for RFBs, the performance of the redox-active species over multiple charge and discharge cycles was analyzed, albeit in a static environment, using galvanostatic cycling in MEPT/Li and MEEPT/Li coin cells. Here we employed the electrolyte 0.5 M LiBF4 in PC in which both MEPT and MEEPT are miscible at as high as 50 wt. % (Table 1). The positive electrode was composed of graphite felt soaked in catholyte consisting of 10 mM active species in 0.5 M LiBF4 in PC, and Li metal was employed as the negative electrode. The electrodes were separated by a lithiated Nafion membrane. The coin cells were cycled between 3.2 and 3.8 V at a rate of C/5 up to 100% SOC so that the first oxidation would be accessed. The theoretical capacities of EPT, MEPT, and MEEPT are 118 mAh/g, 104 mAh/g, and 89 mAh/g, respectively. The charge and discharge plateaus occur in accordance with the potentials determined by CV; they represent the formation and reversible reduction of the respective radical cations. […] The gap between the charge and discharge capacities may result from crossover of the charged species. […] EPT, MEPT, and MEEPT retained ca. 76%, 68% and 67%, respectively, of the original charge capacity after 30 cycles, over which time the coulombic efficiencies for all three catholytes stabilized at ca. 90%.
The charge/discharge experiments were performed using a coin cell cycled by a Landt CT2001A battery cycler. All solutions were prepared in the argon-filled glovebox at room temperature. The catholyte used contained 10 mM EPT, MEPT, or MEEPT in 0.5 M LiBF4 in PC. Nafion 117 was used as the separator membrane between a graphite felt electrode (Sigracell® GFD3) and Li metal electrode. The graphite felt was vacuum dried at 80° C. overnight prior to use. The positive graphite electrodes were soaked in solutions of respective catholytes, for 3-4 h prior to use. When soaked, the foam electrodes absorb approximately 0.43 g of solution (active material: 0.7-1.0 mg). The Nafion membrane was pretreated and soaked in a solution of 0.5 M LiBF4 in PC for 3-4 h prior to use. Each coin cell was assembled in the glovebox and was removed for cycling. The cells were cycled between 3.2 and 3.8 V at a constant current of ca. 0.02 mA, corresponding to C/5 current rate. The charge process continued until the cell reach 100% theoretical capacity or 3.8 V voltage limit, whichever occurred first. Similarly, the discharge process was controlled by reaching 100% theoretical capacity or voltage limit of 3.2 V.

[2] = Overcharge cycling in LFP/graphite coin cells, 80 mM, C/10; settings: 80 mM in Gen 2 electrolyte, LFP/graphite coin cell, C/10, 100% overcharge
Protocol: To determine if the high stability of MEPT and MEEPT were compatible in high concentrations in the neutral and radical cation forms in an environment with greater similarities to that of a non-aqueous RFB, the performance of these electro-active species in overcharging LIBs was evaluated, a method that Zhang and coworkers have also used to analyze the stability of electro-active material candidates. Overcharge experiments with MEPT and MEEPT were conducted at both low (80 mM) and high (1.0 M) concentrations in Gen 2 battery electrolyte in coin cells containing LiFePO4 (LFP) cathodes and graphitic anodes. At 80 mM, EPT, MEPT, and MEEPT were cycled at a rate of C/10 where the charge passed was double that needed to reach 100% state of charge (SOC), and then discharged at the same rate. As expected from the CV characterization, MEPT and MEEPT show higher shuttling potentials (3.50 and 3.55 V, respectively) than EPT (3.40 V) (FIG. 4). This difference is likely due to coordination of Li^+ to the redox shuttle, increasing the oxidation potentials.
Overcharge tests were conducted with stainless steel 2032 coin cells using LiFePO4 (MTI, Richmond, Calif.) as the cathode and MAG-10 (APHEVB, Argonne National Laboratory) as the anode. The anode was composed of 95 wt. % MAG-10 graphite (Hitachi) as the active material and 5 wt. % SBR/CMC (50/50) as the binder. The electrolyte used in coin cell testing was 1.2 M LiPF6 in EC/EMC (3:7 wt. %). Microporous PP/PE/PP trilayer separators from Celgard were used to prevent contact between the anode and cathode. Coin cells were prepared in an argon-filled glovebox with <0.1 ppm oxygen or water present. A Landt CT2001A battery cycler was used for coin cell cycling. Overcharge cycling was conducted by charging with constant current at rate of C/10 for 20 h, followed by discharge at a rate of C/10 for 10 h. […]

Structure (SMILES)	Original charge capacity retained after 30 cycles [1]	Coulombic efficiency [1]	Shuttling potential [2] [V]
COCCN1c2ccccc2Sc2ccccc21 [MEPT, N-(2-methoxyethyl)phenothiazine]	~68%	ca. 90%	3.50
COCCOCCN1c2ccccc2Sc2ccccc21 [MEEPT, N-[2-(2-methoxyethoxy)ethyl]phenothiazine]	~67%	ca. 90%	3.55
CCN1c2ccccc2Sc2ccccc21 [EPT, N-ethylphenothiazine, reference compound]	ca. 76%	ca. 90%	3.40
